# Data published in the supplement of paper PMC6411743.
# By UniProt entry, the sequences of proteins in these tests, tags left out. Where a name states a change or a piece, a line headed by the entry shows the natural chain unless it says otherwise.
# UniProt Q5T6F2: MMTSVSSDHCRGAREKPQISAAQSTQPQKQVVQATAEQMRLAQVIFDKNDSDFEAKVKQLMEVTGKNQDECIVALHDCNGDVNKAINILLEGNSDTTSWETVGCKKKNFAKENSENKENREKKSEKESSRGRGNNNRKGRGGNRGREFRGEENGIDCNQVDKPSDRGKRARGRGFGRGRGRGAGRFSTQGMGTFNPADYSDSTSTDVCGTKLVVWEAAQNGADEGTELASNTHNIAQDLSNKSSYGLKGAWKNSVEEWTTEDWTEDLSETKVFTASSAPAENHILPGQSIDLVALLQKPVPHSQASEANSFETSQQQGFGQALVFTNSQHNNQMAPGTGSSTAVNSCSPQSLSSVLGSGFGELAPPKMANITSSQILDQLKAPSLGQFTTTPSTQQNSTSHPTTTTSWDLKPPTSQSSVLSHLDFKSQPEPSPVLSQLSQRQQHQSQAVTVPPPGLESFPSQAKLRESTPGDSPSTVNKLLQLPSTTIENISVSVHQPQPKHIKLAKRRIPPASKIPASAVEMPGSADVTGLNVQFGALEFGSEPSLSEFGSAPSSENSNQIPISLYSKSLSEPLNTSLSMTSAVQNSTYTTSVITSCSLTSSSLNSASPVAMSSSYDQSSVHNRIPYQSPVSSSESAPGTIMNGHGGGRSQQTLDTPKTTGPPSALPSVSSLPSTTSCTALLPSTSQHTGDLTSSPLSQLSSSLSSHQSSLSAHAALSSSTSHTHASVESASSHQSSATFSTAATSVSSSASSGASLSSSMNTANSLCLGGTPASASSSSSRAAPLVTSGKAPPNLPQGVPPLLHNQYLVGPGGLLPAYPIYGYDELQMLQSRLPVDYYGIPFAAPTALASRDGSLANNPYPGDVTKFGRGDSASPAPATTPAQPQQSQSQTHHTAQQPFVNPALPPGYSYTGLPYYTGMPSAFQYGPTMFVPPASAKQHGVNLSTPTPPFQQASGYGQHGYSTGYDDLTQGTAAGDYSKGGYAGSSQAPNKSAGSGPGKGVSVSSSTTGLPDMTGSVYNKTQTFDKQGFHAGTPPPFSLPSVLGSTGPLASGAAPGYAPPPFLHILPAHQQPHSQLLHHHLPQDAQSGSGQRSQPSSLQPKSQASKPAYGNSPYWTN
# UniProt Q53HC0: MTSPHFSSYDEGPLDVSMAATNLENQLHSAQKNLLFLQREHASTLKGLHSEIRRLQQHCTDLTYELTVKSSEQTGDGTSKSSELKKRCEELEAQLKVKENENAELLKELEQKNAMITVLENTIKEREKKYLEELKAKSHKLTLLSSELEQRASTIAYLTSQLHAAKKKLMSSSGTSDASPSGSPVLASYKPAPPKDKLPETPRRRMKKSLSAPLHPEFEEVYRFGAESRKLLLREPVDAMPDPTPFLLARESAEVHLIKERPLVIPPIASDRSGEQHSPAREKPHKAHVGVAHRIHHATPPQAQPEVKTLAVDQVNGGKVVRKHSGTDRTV
# UniProt Q53EZ4: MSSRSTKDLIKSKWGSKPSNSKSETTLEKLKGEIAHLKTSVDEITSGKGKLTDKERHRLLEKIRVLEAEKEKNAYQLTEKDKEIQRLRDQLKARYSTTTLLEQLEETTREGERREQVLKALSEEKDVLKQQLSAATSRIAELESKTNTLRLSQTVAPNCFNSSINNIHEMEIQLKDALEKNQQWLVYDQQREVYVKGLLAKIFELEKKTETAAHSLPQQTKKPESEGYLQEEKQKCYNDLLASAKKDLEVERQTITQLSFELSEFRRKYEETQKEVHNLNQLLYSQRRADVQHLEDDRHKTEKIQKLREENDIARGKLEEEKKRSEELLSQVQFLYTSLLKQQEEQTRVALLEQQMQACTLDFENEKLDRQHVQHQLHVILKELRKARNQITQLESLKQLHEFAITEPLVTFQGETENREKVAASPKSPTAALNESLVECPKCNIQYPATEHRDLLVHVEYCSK
# UniProt Q6DKK2: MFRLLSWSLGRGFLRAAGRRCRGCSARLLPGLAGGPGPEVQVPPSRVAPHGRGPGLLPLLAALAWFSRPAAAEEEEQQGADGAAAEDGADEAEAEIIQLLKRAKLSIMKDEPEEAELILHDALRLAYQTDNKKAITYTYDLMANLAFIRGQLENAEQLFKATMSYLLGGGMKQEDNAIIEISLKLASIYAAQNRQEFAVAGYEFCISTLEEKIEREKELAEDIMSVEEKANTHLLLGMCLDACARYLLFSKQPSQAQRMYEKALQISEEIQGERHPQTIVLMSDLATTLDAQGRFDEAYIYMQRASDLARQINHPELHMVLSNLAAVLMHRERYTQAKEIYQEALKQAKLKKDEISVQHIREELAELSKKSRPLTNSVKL
# UniProt Q5RKV6, whole entry: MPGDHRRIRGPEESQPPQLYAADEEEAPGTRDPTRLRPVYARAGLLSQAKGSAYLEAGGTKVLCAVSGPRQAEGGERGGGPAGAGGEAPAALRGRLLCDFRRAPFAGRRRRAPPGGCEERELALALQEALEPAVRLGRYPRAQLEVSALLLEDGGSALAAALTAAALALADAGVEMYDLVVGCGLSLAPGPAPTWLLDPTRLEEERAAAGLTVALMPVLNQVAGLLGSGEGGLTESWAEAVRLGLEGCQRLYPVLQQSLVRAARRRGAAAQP
# UniProt Q53H96: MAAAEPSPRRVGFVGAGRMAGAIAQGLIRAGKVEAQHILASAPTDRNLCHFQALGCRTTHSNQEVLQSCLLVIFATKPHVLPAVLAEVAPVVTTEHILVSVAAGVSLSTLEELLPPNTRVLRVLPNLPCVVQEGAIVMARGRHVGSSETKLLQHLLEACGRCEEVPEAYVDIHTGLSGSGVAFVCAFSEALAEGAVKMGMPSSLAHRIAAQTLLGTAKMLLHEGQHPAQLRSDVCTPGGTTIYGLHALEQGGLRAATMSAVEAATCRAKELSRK
# UniProt Q5T200: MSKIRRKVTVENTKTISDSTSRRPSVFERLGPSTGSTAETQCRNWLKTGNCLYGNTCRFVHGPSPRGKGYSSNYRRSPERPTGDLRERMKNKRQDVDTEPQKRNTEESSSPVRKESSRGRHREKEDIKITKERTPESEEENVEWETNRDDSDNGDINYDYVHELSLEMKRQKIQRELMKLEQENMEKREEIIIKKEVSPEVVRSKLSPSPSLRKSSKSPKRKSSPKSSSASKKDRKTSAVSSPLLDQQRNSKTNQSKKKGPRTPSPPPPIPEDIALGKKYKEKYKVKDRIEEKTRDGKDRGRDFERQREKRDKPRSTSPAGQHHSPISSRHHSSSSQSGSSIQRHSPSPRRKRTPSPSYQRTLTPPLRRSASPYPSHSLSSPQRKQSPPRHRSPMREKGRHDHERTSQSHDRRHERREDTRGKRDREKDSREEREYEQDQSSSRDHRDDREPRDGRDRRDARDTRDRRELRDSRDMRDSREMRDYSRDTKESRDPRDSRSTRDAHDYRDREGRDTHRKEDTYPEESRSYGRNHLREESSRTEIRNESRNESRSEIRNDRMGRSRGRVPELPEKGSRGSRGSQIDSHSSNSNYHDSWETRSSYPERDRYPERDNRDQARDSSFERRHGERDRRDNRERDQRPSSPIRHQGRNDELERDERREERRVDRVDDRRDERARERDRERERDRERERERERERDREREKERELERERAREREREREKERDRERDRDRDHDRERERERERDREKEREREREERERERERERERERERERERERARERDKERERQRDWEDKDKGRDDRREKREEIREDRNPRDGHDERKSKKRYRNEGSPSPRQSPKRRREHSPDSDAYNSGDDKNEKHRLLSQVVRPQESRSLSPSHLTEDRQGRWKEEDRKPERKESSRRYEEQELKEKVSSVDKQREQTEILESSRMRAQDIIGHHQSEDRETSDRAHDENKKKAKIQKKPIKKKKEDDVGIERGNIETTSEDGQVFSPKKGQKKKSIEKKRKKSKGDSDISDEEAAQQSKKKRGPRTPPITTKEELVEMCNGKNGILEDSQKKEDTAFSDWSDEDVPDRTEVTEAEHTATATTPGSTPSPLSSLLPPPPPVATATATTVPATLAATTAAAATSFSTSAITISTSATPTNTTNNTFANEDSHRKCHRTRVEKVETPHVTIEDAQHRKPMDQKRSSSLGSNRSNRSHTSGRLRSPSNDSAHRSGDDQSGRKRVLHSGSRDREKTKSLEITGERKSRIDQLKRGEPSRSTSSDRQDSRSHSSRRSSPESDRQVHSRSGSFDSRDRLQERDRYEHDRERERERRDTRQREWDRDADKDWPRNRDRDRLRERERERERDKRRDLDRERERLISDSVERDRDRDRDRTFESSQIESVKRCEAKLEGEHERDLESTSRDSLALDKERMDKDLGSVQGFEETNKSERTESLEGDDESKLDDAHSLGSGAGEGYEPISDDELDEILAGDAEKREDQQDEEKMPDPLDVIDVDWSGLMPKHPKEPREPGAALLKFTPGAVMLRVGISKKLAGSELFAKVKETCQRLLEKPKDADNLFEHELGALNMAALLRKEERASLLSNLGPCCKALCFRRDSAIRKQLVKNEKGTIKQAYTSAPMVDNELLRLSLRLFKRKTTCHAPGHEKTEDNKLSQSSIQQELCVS
# UniProt Q8IWE5: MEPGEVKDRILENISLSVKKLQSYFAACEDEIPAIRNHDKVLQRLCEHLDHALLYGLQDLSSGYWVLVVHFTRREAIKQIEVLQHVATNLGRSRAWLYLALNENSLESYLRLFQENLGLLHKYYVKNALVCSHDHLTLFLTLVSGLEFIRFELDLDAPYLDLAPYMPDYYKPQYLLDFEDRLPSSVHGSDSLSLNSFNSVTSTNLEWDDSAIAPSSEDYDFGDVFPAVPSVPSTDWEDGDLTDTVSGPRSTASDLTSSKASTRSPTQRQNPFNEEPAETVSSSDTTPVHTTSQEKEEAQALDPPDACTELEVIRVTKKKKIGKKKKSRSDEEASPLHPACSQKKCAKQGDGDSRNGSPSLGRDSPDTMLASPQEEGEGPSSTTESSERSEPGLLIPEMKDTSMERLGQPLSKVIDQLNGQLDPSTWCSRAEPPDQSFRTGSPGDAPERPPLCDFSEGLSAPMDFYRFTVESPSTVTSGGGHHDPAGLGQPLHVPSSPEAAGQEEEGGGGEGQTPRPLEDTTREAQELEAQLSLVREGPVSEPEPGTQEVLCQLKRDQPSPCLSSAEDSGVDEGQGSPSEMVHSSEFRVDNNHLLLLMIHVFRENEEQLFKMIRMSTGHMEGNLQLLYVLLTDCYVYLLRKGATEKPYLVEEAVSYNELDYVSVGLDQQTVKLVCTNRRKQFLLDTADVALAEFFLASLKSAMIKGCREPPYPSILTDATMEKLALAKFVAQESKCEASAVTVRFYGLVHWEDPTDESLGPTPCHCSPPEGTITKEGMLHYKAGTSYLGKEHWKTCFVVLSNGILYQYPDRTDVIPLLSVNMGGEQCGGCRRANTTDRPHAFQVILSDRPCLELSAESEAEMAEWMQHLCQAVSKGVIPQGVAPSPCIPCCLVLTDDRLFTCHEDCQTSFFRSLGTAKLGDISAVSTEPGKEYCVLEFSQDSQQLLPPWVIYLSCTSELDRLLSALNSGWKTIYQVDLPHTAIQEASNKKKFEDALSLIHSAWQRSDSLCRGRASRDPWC
# UniProt Q53GS7: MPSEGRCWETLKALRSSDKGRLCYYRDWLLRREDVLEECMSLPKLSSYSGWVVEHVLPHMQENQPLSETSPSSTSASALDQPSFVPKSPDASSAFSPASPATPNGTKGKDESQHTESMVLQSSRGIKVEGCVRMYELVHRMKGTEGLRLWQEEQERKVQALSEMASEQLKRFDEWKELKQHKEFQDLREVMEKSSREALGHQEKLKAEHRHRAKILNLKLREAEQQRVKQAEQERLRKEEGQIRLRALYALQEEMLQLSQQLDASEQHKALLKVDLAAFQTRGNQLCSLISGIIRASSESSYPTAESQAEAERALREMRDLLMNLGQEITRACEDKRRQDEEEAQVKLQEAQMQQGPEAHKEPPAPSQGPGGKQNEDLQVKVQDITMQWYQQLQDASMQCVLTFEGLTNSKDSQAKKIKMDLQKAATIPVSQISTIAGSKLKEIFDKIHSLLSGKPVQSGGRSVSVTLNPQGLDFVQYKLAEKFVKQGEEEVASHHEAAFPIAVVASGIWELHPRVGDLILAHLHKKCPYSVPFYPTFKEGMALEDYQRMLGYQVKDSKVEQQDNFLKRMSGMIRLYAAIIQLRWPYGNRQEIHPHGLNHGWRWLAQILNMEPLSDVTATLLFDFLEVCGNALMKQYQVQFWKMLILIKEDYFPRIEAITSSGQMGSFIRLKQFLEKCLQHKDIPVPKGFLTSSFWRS
# UniProt Q5VZF2: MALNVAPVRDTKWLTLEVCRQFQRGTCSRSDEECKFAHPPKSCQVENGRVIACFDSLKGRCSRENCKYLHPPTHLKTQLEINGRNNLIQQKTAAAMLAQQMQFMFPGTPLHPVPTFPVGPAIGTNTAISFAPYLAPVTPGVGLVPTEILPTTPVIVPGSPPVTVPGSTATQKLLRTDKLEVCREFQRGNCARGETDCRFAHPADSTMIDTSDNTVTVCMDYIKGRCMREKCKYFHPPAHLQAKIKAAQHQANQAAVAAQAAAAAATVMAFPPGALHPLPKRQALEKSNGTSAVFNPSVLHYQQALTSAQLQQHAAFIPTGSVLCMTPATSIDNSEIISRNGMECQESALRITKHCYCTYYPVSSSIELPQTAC
# ± gives the standard deviation of the averaged measurements. The list shows a part of the results, in another mix than the full data. Small differences around the control level are noise.
# Compound: Nc1ncnc2c1ncn2[C@@H]1O[C@H](COP(=O)(O)OP(=O)(O)OP(=O)(O)O)[C@@H](O)[C@H]1O [adenosine triphosphate]
# Experiment: NP40-soluble protein abundance relative to vehicle (solubility fold change) (ratio); higher = more soluble protein in presence of ATP
# Procedure, shortened: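 In three independent experiments, Jurkat crude lysate made by Dounce homogenisation was treated for 10 min at room temperature and then 3 min at 37 °C with eight concentrations ranging from 0.1 to 10 mM. It was then solubilised with 0.8% NP40 plus benzonase for 60 min at 4 °C and ultracentrifuged. The supernatant was TMT-labelled for LC-MS/MS, and each value is the fold change against the detergent-processed vehicle for the same replicate, using vsn-normalised intensities.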
Target,NP40-soluble protein abundance (concentration: 0.1mM),NP40-soluble protein abundance (concentration: 0.5mM),NP40-soluble protein abundance (concentration: 1mM),NP40-soluble protein abundance (concentration: 2mM),NP40-soluble protein abundance (concentration: 4mM),NP40-soluble protein abundance (concentration: 6mM),NP40-soluble protein abundance (concentration: 8mM),NP40-soluble protein abundance (concentration: 10mM)
UBAP2 (UniProt Q5T6F2),0.98 ± 0.016,0.968 ± 0.051,,,,,,
RPL7L1 (UniProt Q6DKI1),0.997 ± 0.062,0.964 ± 0.032,,,,,,
Q5VZM2-2|Q7L523 (UniProt Q7L523+Q5VZM2),1.16 ± 0.13,1.13 ± 0.066,,,,,,
UniProt Q53HC0 and related entries,0.9985 ± 0.0087,0.982 ± 0.068,0.993 ± 0.083,0.918 ± 0.031,0.939 ± 0.082,0.993 ± 0.21,0.966 ± 0.092,0.922 ± 0.084
CEP55 (UniProt Q53EZ4),0.967 ± 0.068,0.988 ± 0.022,,,,,,
TTC19 (UniProt Q6DKK2),0.929 ± 0.097,0.869 ± 0.11,0.971 ± 0.078,0.922 ± 0.037,0.973 ± 0.043,0.923 ± 0.04,0.985 ± 0.038,0.865 ± 0.094
EXOSC6 (UniProt Q5RKV6),0.965 ± 0.076,0.932 ± 0.034,,,,,,
UniProt Q53H96 and related entries,1.01 ± 0.07,0.999 ± 0.11,1.04 ± 0.076,1.06 ± 0.1,1.09 ± 0.08,1.01 ± 0.14,1.03 ± 0.11,1.03 ± 0.1
UniProt Q6IN85,0.994 ± 0.055,1.03 ± 0.055,1.03 ± 0.066,0.979 ± 0.042,0.946 ± 0.041,0.991 ± 0.048,0.956 ± 0.047,0.935 ± 0.08
UniProt Q5T200 and related entries,1.01 ± 0.046,1.03 ± 0.051,1.04 ± 0.057,1.1 ± 0.056,1.15 ± 0.077,1.22 ± 0.094,1.21 ± 0.086,1.29 ± 0.093
CEP135 (UniProt Q66GS9),0.9923 ± 0.0053,0.984 ± 0.05,0.983 ± 0.041,0.966 ± 0.026,0.964 ± 0.038,0.956 ± 0.036,0.972 ± 0.029,0.989 ± 0.047
UniProt Q6MZP7 and related entries,0.97 ± 0.011,1.01 ± 0.029,,,,,,
Q5VVD7 and related entries (UniProt Q8IWE5),1.04 ± 0.053,0.979 ± 0.037,0.929 ± 0.047,0.998 ± 0.048,0.932 ± 0.04,0.953 ± 0.036,0.95 ± 0.04,0.955 ± 0.03
Q5QPA5 and related entries (UniProt Q9NVS2),0.951 ± 0.18,0.988 ± 0.16,1.07 ± 0.12,0.926 ± 0.14,0.879 ± 0.17,0.946 ± 0.39,0.887 ± 0.24,0.818 ± 0.2
UniProt Q562F6 and related entries,0.969 ± 0.073,1.03 ± 0.046,,,,,,
C19orf54 (UniProt Q5BKX5),1 ± 0.081,1 ± 0.082,,,,,,
UniProt Q53GS7 and related entries,1.13 ± 0.14,1.12 ± 0.06,1.18 ± 0.079,1.19 ± 0.12,1.39 ± 0.24,1.54 ± 0.24,1.52 ± 0.2,1.71 ± 0.23
Q5JSC0 and related entries (UniProt Q5VZF2),1.04 ± 0.04,1.05 ± 0.016,,,,,,

# Part of the list above, limited to NP40-soluble protein abundance (concentration: 0.1mM):
Target	NP40-soluble protein abundance (concentration: 0.1mM)
TTC19 (UniProt Q6DKK2)	0.929 ± 0.097
UniProt Q53GS7 and related entries	1.13 ± 0.14
